Results on four molecules are retold here after publication doi:10.1101/2021.05.22.445289.

The chains behind the UniProt entries cited, without tags or fusion partners.
UniProt P15409: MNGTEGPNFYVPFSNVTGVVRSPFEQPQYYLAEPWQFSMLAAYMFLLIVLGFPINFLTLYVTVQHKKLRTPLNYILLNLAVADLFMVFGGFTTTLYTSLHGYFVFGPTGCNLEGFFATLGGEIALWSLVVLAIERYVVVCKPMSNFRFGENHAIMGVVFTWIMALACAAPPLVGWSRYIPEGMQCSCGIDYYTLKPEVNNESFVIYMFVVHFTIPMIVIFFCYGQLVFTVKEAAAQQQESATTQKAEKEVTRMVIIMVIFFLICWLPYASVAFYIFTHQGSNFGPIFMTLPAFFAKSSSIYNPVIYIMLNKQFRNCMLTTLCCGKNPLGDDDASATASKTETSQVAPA

Results are given in words; binding and its absence hold for the method and conditions named. In cells and extracts the contact can be indirect. Some entries that bind do so weakly or less than the wild type. Where a sequence is shown, tags or fusion partners need not be part of it.

Experiment in all cases: pull-down
Experiment [1] has as its target T1, 3xFlag-TST (Twin-Strep-tag)-tagged Tmem138 (mouse) (UniProt Q9D6G5).
T1 sequence: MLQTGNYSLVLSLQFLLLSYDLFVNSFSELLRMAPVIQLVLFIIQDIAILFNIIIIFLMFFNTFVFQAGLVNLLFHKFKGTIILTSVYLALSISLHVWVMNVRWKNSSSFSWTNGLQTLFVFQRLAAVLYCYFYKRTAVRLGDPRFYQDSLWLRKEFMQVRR

The target in experiment [2] is T2, Ahi1 (HA- or Flag-tagged) (UniProt Q8K3E5).
T2 sequence: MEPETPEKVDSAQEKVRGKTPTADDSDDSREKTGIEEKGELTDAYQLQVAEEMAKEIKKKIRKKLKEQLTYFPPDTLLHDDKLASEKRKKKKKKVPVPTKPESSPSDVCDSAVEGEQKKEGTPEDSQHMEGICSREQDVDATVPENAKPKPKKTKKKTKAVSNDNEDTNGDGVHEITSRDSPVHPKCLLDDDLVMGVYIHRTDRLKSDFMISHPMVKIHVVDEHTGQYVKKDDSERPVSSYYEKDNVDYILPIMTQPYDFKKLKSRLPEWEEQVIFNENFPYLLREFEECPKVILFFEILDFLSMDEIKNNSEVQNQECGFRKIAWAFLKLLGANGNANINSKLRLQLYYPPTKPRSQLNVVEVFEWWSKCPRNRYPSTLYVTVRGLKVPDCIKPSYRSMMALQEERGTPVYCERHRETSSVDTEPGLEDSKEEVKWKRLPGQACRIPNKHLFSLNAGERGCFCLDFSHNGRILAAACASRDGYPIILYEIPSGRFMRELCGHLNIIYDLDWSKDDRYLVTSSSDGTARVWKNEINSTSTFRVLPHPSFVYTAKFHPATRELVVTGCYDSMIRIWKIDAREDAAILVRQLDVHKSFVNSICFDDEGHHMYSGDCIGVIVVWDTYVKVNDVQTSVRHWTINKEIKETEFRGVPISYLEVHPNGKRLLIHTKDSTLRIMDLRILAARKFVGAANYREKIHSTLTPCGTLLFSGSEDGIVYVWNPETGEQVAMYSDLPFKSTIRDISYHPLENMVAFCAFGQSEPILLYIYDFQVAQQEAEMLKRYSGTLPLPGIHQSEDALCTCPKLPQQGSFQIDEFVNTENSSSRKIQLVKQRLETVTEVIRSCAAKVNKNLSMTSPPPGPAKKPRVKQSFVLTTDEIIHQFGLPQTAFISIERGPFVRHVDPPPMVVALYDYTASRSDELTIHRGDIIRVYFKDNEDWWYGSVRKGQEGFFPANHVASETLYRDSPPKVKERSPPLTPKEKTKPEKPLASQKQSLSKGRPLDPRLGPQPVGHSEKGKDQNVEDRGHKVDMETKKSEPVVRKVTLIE

For experiment [3], the target named is HA-tagged rhodopsin (UniProt P15409).

B1: Tmem231 (HA- or Flag-tagged) (protein, UniProt Q3U284 1-315)
chain: MALYHLFSHPIERAYRAGLCSKAALFLLLTTALTYIPPLLVAFRSHGFWLKRSSYEEQPNVRFQHQVLLVALLGPEPEAFLAWSTFPTFNRLQGAHLRVPLVSSREEDRNQDGKMDVLYFKLELPLQPTEHVLGVQLILTFSYQLHRMSTFEMQSMAFLQSSFAVPGSQLYVNGDLRLQQKQPLSYRGLDIRYNVSVINGTSPFAQDYDLTHIVAAYQERNVTTVLSDPNPIWLVGRAAEAPFVIHAVIRYPTEVISYQPGFWEMIKFAWIQYVSILLIFLWVFERIKIFVFQNQVVTSIPVAVPQGEIRKEHLS
In the case of B1, the results for the binding entry in experiment [1], in experiment [2] and in experiment [3] were “binds”, “no binding” and “binds”, respectively.

B2: Ahi1 (HA- or Flag-tagged) (protein, UniProt Q8K3E5 1-1047)
chain: MEPETPEKVDSAQEKVRGKTPTADDSDDSREKTGIEEKGELTDAYQLQVAEEMAKEIKKKIRKKLKEQLTYFPPDTLLHDDKLASEKRKKKKKKVPVPTKPESSPSDVCDSAVEGEQKKEGTPEDSQHMEGICSREQDVDATVPENAKPKPKKTKKKTKAVSNDNEDTNGDGVHEITSRDSPVHPKCLLDDDLVMGVYIHRTDRLKSDFMISHPMVKIHVVDEHTGQYVKKDDSERPVSSYYEKDNVDYILPIMTQPYDFKKLKSRLPEWEEQVIFNENFPYLLREFEECPKVILFFEILDFLSMDEIKNNSEVQNQECGFRKIAWAFLKLLGANGNANINSKLRLQLYYPPTKPRSQLNVVEVFEWWSKCPRNRYPSTLYVTVRGLKVPDCIKPSYRSMMALQEERGTPVYCERHRETSSVDTEPGLEDSKEEVKWKRLPGQACRIPNKHLFSLNAGERGCFCLDFSHNGRILAAACASRDGYPIILYEIPSGRFMRELCGHLNIIYDLDWSKDDRYLVTSSSDGTARVWKNEINSTSTFRVLPHPSFVYTAKFHPATRELVVTGCYDSMIRIWKIDAREDAAILVRQLDVHKSFVNSICFDDEGHHMYSGDCIGVIVVWDTYVKVNDVQTSVRHWTINKEIKETEFRGVPISYLEVHPNGKRLLIHTKDSTLRIMDLRILAARKFVGAANYREKIHSTLTPCGTLLFSGSEDGIVYVWNPETGEQVAMYSDLPFKSTIRDISYHPLENMVAFCAFGQSEPILLYIYDFQVAQQEAEMLKRYSGTLPLPGIHQSEDALCTCPKLPQQGSFQIDEFVNTENSSSRKIQLVKQRLETVTEVIRSCAAKVNKNLSMTSPPPGPAKKPRVKQSFVLTTDEIIHQFGLPQTAFISIERGPFVRHVDPPPMVVALYDYTASRSDELTIHRGDIIRVYFKDNEDWWYGSVRKGQEGFFPANHVASETLYRDSPPKVKERSPPLTPKEKTKPEKPLASQKQSLSKGRPLDPRLGPQPVGHSEKGKDQNVEDRGHKVDMETKKSEPVVRKVTLIE
With B2, the binding result is given as “binds” in experiment [1] and “no binding” in experiment [3].

B3: Tmem67-Flag (protein, UniProt Q8BR76 37-992)
chain: QIFSFPFRRPETCDFNQYFDISALSCAPCGANQRRDALGTSCVCLPGYHMISNNGGPSIICKKCPENMKGVTKDGWDCISCPSGLTAEGKCHCPTGHILVERNVSGSLLAQATCELCDESENSFTKANALGTRCVRCEPTFVNTSRSCSCSEPHTLTGGLCFSNTGNFHQRVISTARYGELGMSLNSEWFAKYLQATAAACWTHANLTSCQALGNMCVMNMNSYDSTTLDACRLFHYIFESTAGLISVHSVPFWRQNLPWLFYGDQPGLAPQVLSTTPLPTNFSFKGQNQLKFVAASYDIRGNFIKWQPLEGGVLQLCPDTERRLDAAYAFGTTYQQNCEISLSKLLVDFSSPVFYDVYLEYTDEEQHRYLWPIPVLNLNLQHNKLFVNQDSSSSKWLLTRRIFLVDAVSGRENDLGNQPRVIRVATQISLSIRLVPNTKNGNIYTPLLTIAYSDIDIKNAHSQSAKISFSVKYEMNQGDASVHTDIALGVLGGLAVLSSLLKTAGWKRRVGSPMIDLQTVMKFLLYYAGDLANVFFIITVGTGLYWLIFFKAQKSVSVLLPMPVQEERFVTYVGCAFAMKALQFLHKFISQISIDIFFIDWERPKGKVLKAVEGEGGVRSATVPVSIWRTYFVANEWNEIQTVRKINPLFQVLTTLFFLEVVGFKNLALMDSSSSLSRNPSDYTAPYSRILRYAVATAIWLVIGIIQVVFFAAFYERFIEDKIRQFVDLCSMSNVSVFLLSHRCFGYYIHGRSVHGHADTNMEEMNMNLKREAENLCSQRGLVPNTDGQTFQIAVSSQMRQHYDRIHETLTRRNGPARLLSSSGSTFEQSIKAYHAMNKFLGSFIDHVHKEMDYFIKDKLLLERILGMEFMEPMEKSIFYNDEGHSFSSVLYYGNEATLLIFDLLFFCVVDLACQDFVLASFLTYLQQEIFRFIRNTVGQKNLATKTLVDERFLI
Take B3: the binding result in experiment [1] is given as “no binding”.

B4: 3xFlag-TST (Twin-Strep-tag)-tagged Tmem138 (protein, UniProt Q9D6G5 1-162)
chain: MLQTGNYSLVLSLQFLLLSYDLFVNSFSELLRMAPVIQLVLFIIQDIAILFNIIIIFLMFFNTFVFQAGLVNLLFHKFKGTIILTSVYLALSISLHVWVMNVRWKNSSSFSWTNGLQTLFVFQRLAAVLYCYFYKRTAVRLGDPRFYQDSLWLRKEFMQVRR
As to B4, in experiment [3], the binding result was “binds”.
